{
  "sequences": {"note": "By UniProt entry, the sequences of proteins in these tests, tags left out. Where a name states a change or a piece, a line headed by the entry shows the natural chain unless it says otherwise.", "UniProt P18054": "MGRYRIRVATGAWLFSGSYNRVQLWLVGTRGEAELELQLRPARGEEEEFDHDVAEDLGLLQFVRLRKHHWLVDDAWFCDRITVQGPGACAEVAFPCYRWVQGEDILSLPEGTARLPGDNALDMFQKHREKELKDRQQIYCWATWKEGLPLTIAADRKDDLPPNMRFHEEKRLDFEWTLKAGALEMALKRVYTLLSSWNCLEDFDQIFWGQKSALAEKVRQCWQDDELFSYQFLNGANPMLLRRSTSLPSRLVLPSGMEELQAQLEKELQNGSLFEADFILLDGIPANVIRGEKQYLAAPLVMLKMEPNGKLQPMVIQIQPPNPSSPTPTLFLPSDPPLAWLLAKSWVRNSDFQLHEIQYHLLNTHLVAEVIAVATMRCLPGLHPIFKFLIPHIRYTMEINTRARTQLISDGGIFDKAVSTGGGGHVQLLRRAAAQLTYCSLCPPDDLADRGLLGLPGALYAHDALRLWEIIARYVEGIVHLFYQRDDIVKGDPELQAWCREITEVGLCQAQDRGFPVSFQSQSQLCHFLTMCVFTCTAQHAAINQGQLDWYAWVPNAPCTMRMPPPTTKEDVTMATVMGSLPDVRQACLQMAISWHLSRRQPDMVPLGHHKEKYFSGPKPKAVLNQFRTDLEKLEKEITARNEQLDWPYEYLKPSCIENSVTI"},
  "source": "PubChem BioAssay AID1671190",
  "about": "(National Center for Advancing Translational Sciences (NCATS), 2021)",
  "note": "The campaign covered roughly 580,000 compounds. About 6,100 (1.1%) were called active. Inconclusive results, whose numbers are uncertain, are shown with a selection of clear calls. Calls follow the shape of the dose curve; as a rule, active = well fitted inhibition curve with a large enough effect; inconclusive = small, poorly fitted or top-dose-only effect, or another doubt; inactive = no such curve, though single readings can be large or run the other way. Potencies beside an inconclusive call are fits to weak or partial responses and may not hold up. Potency is read from the fitted curve at half-maximal effect.",
  "data": [
    {"target": "Polyunsaturated fatty acid lipoxygenase ALOX12 (Homo sapiens) (UniProt P18054)", "test": "Primary qHTS assay for inhibitors of human arachidonate 12S-lipoxygenase (ALOX12): Round 2", "settings": "purified 12hLO, xylenol orange hydroperoxide absorbance; series mostly up to 108 µM", "summary_of_the_method": "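Purified human 12hLO (150 nM final) in 25 mM Hepes, 0.01% Triton X-100, pH 7.0 was preincubated 15 min at room temperature with compound. Then 40 uM arachidonic acid was added, 30 min. Hydroperoxide was read by Fe-XO absorbance ratio 573/405 nm.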", "values": [
      {"compound": "Clc1ccccc1-c1ccc(CN2CCN(c3ccccc3)CC2)o1", "Potency": "inconclusive: 39.8 µM [inhibitor, partial curve, poor fit]"},
      {"compound": "Fc1ccccc1-c1nnc(SCc2cccc(F)c2F)n1C1CC1", "Potency": "inconclusive: 50.1 µM [inhibitor, partial curve, poor fit]"},
      {"compound": "CC(C)(C)S(=O)(=O)c1ccccc1C(=O)O", "Potency": "inconclusive: 14.1 µM [inhibitor, single point]"},
      {"compound": "Cc1ccc(NC(=O)c2cc(S(=O)(=O)NCCC3=CCCCC3)ccc2F)cc1C", "Potency": "inconclusive: 44.7 µM [inhibitor, partial curve, poor fit]"},
      {"compound": "Cc1cccc(-c2nc3scc(CCNS(=O)(=O)c4ccc(F)cc4C)n3n2)c1", "Potency": "inconclusive: 44.7 µM [inhibitor, partial curve]"},
      {"compound": "Cc1ccc(NC(=O)Cn2c(=O)ccn(Cc3ccccc3)c2=O)cc1S(=O)(=O)N1CCOCC1", "Potency": "inactive"},
      {"compound": "O=C(CSc1ccc(Cl)cc1)N1CCN(c2ccc([N+](=O)[O-])cc2Cl)CC1", "Potency": "inconclusive: 28.2 µM [inhibitor, single point]"},
      {"compound": "Cc1ccccc1C1N=C2Oc3ccccc3C=C2C(=O)N1", "note": "(stereo not given)", "Potency": "inconclusive: 79.4 µM [inhibitor, partial curve, poor fit]"},
      {"compound": "O=C(COc1ccc(Br)cc1Cl)NCCCN1CCOCC1", "Potency": "inconclusive: 3.55 µM [inhibitor, full curve, poor fit]"},
      {"compound": "Cc1ccc(OCCC(=O)OCC(=O)N2CCN(S(=O)(=O)c3ccc(Cl)cc3)CC2)cc1", "Potency": "inactive"},
      {"compound": "CCc1ccc(NC(=O)c2sc3nc(C)c(C(=O)Nc4ccc(C)cc4C)c(-c4ccco4)c3c2N)cc1", "Potency": "inactive"},
      {"compound": "O=C(Nc1ccccn1)c1cc(-c2cccc(Cl)c2)nc2ccccc12", "Potency": "inconclusive: 79.4 µM [inhibitor, partial curve, poor fit]"},
      {"compound": "Cc1ccc(-c2cc(C(=O)O)c3cc(Cl)ccc3n2)s1", "Potency": "inconclusive: 35.5 µM [inhibitor, partial curve, poor fit]"},
      {"compound": "O=C(Nc1ccccc1)Nc1csc2ccccc12", "Potency": "inconclusive: 112 µM [inhibitor, single point]"},
      {"compound": "COc1ccc(Nc2sc(C(=O)c3ccccc3)c(N)c2C(=O)Nc2cc(C)ccc2C)c(OC)c1", "Potency": "inactive"},
      {"compound": "O=C(Nc1ccc(C(=O)O)cc1)/C(=C\\c1ccco1)NC(=O)c1ccccc1Cl", "Potency": "inconclusive: 39.8 µM [inhibitor, partial curve, poor fit]"},
      {"compound": "Cc1c(NC(=O)c2cc(-c3ccc(Br)cc3)on2)c(=O)n(-c2ccccc2)n1C", "Potency": "inconclusive: 79.4 µM [inhibitor, partial curve, poor fit]"},
      {"compound": "CC1CCC(NC(=O)c2csc3c2CCC(C)C3)CC1", "note": "(stereo not given)", "Potency": "inconclusive: 89.1 µM [inhibitor, partial curve, poor fit]"},
      {"compound": "O=C(Nc1ccc2c3c(cccc13)CC2)C(Cl)(Cl)Cl", "Potency": "inconclusive: 31.6 µM [inhibitor, partial curve]"},
      {"compound": "O=NC1=C(c2c(O)[nH]c3ccccc23)CCCC1", "Potency": "inconclusive: 22.4 µM [inhibitor, partial curve, poor fit]"},
      {"compound": "O=[N+]([O-])c1ccc(Cl)c(-c2ccc(/C=N/c3c(-c4ccco4)nc4ccccn34)o2)c1", "Potency": "inconclusive: 89.1 µM [inhibitor, single point]"},
      {"compound": "O=[N+]([O-])c1ccccc1N/N=C/c1c[nH]c2ccccc12", "Potency": "inconclusive: 39.8 µM [inhibitor, partial curve, poor fit]"},
      {"compound": "CCOC(=O)c1sc2nc3c(SCCC(=O)O)cc(C(=O)c4cc(OC)ccc4O)cn3c(=O)c2c1C", "Potency": "inconclusive: 63.1 µM [inhibitor, partial curve, poor fit]"},
      {"compound": "CC(NC(=O)c1ccccc1F)c1nnc(SCc2nc3ccccc3c(=O)[nH]2)n1C", "note": "(stereo not given)", "Potency": "inconclusive: 44.7 µM [inhibitor, partial curve, poor fit]"},
      {"compound": "COc1ccc(NC(C)=O)cc1NC(=O)/C=C/c1ccc2ccccc2n1", "Potency": "inconclusive: 70.8 µM [inhibitor, single point]"},
      {"compound": "COc1ccc(NC(=O)c2ccc3c(c2)n(C)c(=O)n3C)cc1", "Potency": "inconclusive: 126 µM [inhibitor, single point]"},
      {"compound": "CCC(C)(C(=O)NC1CCCC1)N(C)C(=O)Cc1c[nH]c2ccccc12", "note": "(stereo not given)", "Potency": "inconclusive: 1.78 µM [inhibitor, full curve, poor fit]"},
      {"compound": "Cc1cccc(CN2CCN(C3CN(Cc4cn(Cc5ccccc5C(F)(F)F)nn4)S(=O)(=O)C3)CC2)c1", "note": "(stereo not given)", "Potency": "inconclusive: 44.7 µM [inhibitor, partial curve, poor fit]"},
      {"compound": "COc1cccc(CNC(=O)CCCN2C(=O)CSc3c2c(C)nn3-c2ccccc2)c1OC", "Potency": "inconclusive: 56.2 µM [inhibitor, partial curve, poor fit]"},
      {"compound": "N#Cc1ccc(-c2cccs2)nc1SCc1cccnc1", "Potency": "inconclusive: 70.8 µM [inhibitor, partial curve, poor fit]"},
      {"compound": "COc1ccc(CNC(=O)C2CCN(c3nc4ccccc4nc3OC)CC2)cc1", "Potency": "inactive"},
      {"compound": "COc1cccc2c(C)nc(NC3=NCN(CCO)CN3)nc12", "Potency": "inconclusive: 0.199 µM [inhibitor, full curve, poor fit]"},
      {"compound": "C=CCN1C(=O)c2ccc(C(=O)N(C)CC(=O)Nc3ccccc3C(F)(F)F)cc2C1=O", "Potency": "inconclusive: 100 µM [inhibitor, partial curve, poor fit]"},
      {"compound": "C/C(=N\\NC(=S)Nc1ccc(C(C)C)cc1)c1ccc2c(c1)OCO2", "Potency": "inconclusive: 17.8 µM [inhibitor, partial curve]"},
      {"compound": "CCCSc1ccc([C@@H]2[C@@H]3C(=O)N(C)C(=O)[C@@H]3[C@]3(C(=O)OC)CCCCN23)cc1OC", "Potency": "inconclusive: 44.7 µM [inhibitor, partial curve, poor fit]"},
      {"compound": "O=C(CCc1nc(C2CCOC2)no1)NC1CCCCCCC1", "note": "(stereo not given)", "Potency": "inconclusive: 8.91 µM [inhibitor, partial curve, poor fit]"},
      {"compound": "COC(C[C@H](O)CC(=O)[C@H](C)OCc1ccccc1)OC", "Potency": "inconclusive: 5.01 µM [inhibitor, full curve, poor fit]"},
      {"compound": "O=c1c(Cl)c(N2CCC3(CC2)OCCO3)cnn1C12CC3CC(CC(C3)C1)C2", "Potency": "inconclusive: 100 µM [inhibitor, single point]"},
      {"compound": "CCc1ccc(/C=C2\\SC(=S)N(CCCC(=O)Nc3ccccc3C(=O)O)C2=O)cc1", "Potency": "inconclusive: 31.6 µM [inhibitor, partial curve, poor fit]"},
      {"compound": "CSC1=NCCN1CCOc1ccccc1", "Potency": "inconclusive: 20 µM [inhibitor, partial curve, poor fit]"},
      {"compound": "COc1ccc(CCNc2cc(N3CCN(C(=O)c4ccccc4F)CC3)ccc2[N+](=O)[O-])cc1OC", "Potency": "inactive"},
      {"compound": "CC1CCN(S(=O)(=O)c2ccc3nc(NCc4ccc(F)cc4)ccc3c2)CC1", "Potency": "inconclusive: 50.1 µM [inhibitor, partial curve, poor fit]"},
      {"compound": "CC1CCCCN1CCCNc1nc(-c2ccncc2)nc2ccccc12", "note": "(stereo not given)", "Potency": "inactive"},
      {"compound": "O=C(c1cc2ccccc2o1)N1CCN(Cc2nc3ccccc3s2)CC1", "Potency": "active: 17.8 µM"},
      {"compound": "Cc1ccc(-c2csc(=S)n2CC(=O)OCC(=O)NCc2ccco2)cc1", "Potency": "inconclusive: 0.316 µM [inhibitor, full curve, poor fit]"},
      {"compound": "CC(NC(=O)COc1ccc(-c2nnco2)cc1)c1ccc(Cl)cc1Cl", "note": "(stereo not given)", "Potency": "inconclusive: 63.1 µM [inhibitor, partial curve, poor fit]"},
      {"compound": "CCOC(=O)c1cnc(-n2nc(C)cc2C)nc1Oc1ccccc1F", "Potency": "inconclusive: 14.1 µM [inhibitor, partial curve, poor fit]"},
      {"compound": "Cc1ccccc1Nc1c(-c2c[nH]c3ccccc23)nc2ccccn12", "Potency": "inconclusive: 56.2 µM [inhibitor, partial curve, poor fit]"},
      {"compound": "Cc1ccc(CNC(=O)Nc2ccccc2Cl)cc1", "Potency": "inconclusive: 112 µM [inhibitor, single point]"},
      {"compound": "COc1ccc(S(=O)(=O)N2CCCC2CNC(=O)C(=O)NCc2ccc(C)cc2)cc1", "note": "(stereo not given)", "Potency": "inactive"},
      {"compound": "O=C(Cn1nnc2sc(-c3ccccc3)cc2c1=O)Nc1cccc(C(F)(F)F)c1", "Potency": "inconclusive: 56.2 µM [inhibitor, partial curve, poor fit]"},
      {"compound": "CCCCn1c(O)c(N=Nc2ccccc2O)c2ccccc21", "Potency": "inconclusive: 44.7 µM [inhibitor, partial curve]"},
      {"compound": "S=c1[nH]c2cc(C34CC5CC(CC(C5)C3)C4)ccc2o1", "Potency": "inconclusive: 39.8 µM [inhibitor, partial curve, poor fit]"},
      {"compound": "CCOc1ccc(CCNc2ncnc3onc(-c4ccc(Cl)cc4)c23)cc1", "Potency": "inactive"},
      {"compound": "CCCCNC(=O)C1CCN(Cc2ccc(OCc3ccccc3)cc2)CC1", "Potency": "inconclusive: 6.31 µM [inhibitor, full curve, poor fit]"},
      {"compound": "OCCN1CCN(c2ncnc3c2c(-c2ccccc2)cn3-c2ccc(Br)cc2)CC1", "Potency": "inconclusive: 89.1 µM [inhibitor, partial curve, poor fit]"},
      {"compound": "COC(CNC(=O)C1CCN(S(=O)(=O)c2ccc3nc4c(c(C(=O)O)c3c2)CC(C)CC4)CC1)OC", "note": "(stereo not given)", "Potency": "inactive"},
      {"compound": "Cc1ccc(S(=O)(=O)c2c(N)n(CCCO)c3nc4ccccc4nc23)cc1", "Potency": "inconclusive: 79.4 µM [inhibitor, partial curve, poor fit]"},
      {"compound": "COc1ccc(NS(=O)(=O)c2csc(C(N)=O)c2)cc1", "Potency": "inactive"},
      {"compound": "Cc1ccc(N=C2NC(=O)/C(=C/c3cccnc3)S2)cc1C", "Potency": "inconclusive: 100 µM [inhibitor, single point]"}
    ]}
  ]
}
